The source of these data is PubChem BioAssay AID1458 (National Center for Advancing Translational Sciences (NCATS), 2008).

SMILES strings stand for the structures. About 5,900 (2.8%) of roughly 210,000 compounds were called active. Not shown: some 5% with an inconclusive outcome. Calls follow the shape of the dose curve; as a rule, active = well fitted activation curve with a large enough effect; inconclusive = small, poorly fitted or top-dose-only effect; inactive = no such curve, though single readings can be large or run the other way. This is a selection; strong and weak results do not stand in their true shares. Entries without a call were filed so in the source.
Potency is read from the fitted curve at half-maximal effect.

This experiment is described as follows: qHTS Assay for Enhancers of SMN2 Splice Variant Expression. Also: nearly all actives have a fitted effect of over 55% in size. As to activity change, positive = activation: % of control where 0% means no effect. The following applies: HEK293 SMN2-luciferase splicing reporter, luminescence, 30-36 h; activity change, positive = activation: at 46.1 µM (top of the series) unless noted. The gist of the method:
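HEK293 cells carry an SMN2 […]–luciferase reporter in which exon 7 inclusion puts luciferase in frame. Cells were plated 10-12 h before compound addition, then incubated 30-36 h at 37C. ONE-Glo luminescence was read; sodium butyrate at 4.5 mM final served as control.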
Background: Quantitative high-throughput screening tests each substance at several concentrations.
`O=C1Nc2ccccc2N(O)N1c1cc(-c2cccc(Cl)c2)no1`: the activity change, positive = activation was 40.2%. `CCN(CC)C(=O)c1ccc2c3c(cccc13)C(=O)N(CCc1ccc(OC)c(OC)c1)C2=O`: the activity change, positive = activation was -57.9%.

With `N/C(=N\OC(=O)/C=C/c1ccc(Br)cc1)c1ccccn1`, the Potency was active: 17.8 µM. For the molecule `N#C/C(=C\c1cn[nH]c1-c1ccc(Cl)cc1)C(=O)NCc1ccccc1`, the activity change, positive = activation is 41%. As to `COc1cc(C)cc(OC)c1/C=C\C(=O)O`, the activity change, positive = activation is inactive: -49.9% [at 9.22 µM]. On to `COc1ccccc1N1CCN(C(=O)CN(Cc2ccccc2)S(C)(=O)=O)CC1`, for which the activity change, positive = activation is -35.7%. Take `CCOc1ccc(C2C(C(=O)c3ccco3)=C(O)C(=O)N2Cc2cccnc2)cc1OC` (stereo not given): the activity change, positive = activation was 41.4%. On the same count and under the same terms, for `CN(c1ccccc1)S(=O)(=O)c1ccc(Cl)c(C(=O)Nc2ccc(-c3nc4ccccc4[nH]3)cc2)c1` the value was inactive: -42.6%.

On to `CC(C)c1ccc(C(=O)NCc2ccc(Cl)cc2)cc1`, for which the Potency is active: 15.8 µM. Turning to `COCCSc1nnc(NC(=O)C(C)(C)C)s1`, the activity change, positive = activation is 30.9%. As to `CCOC(=O)Cn1nc(C)c2ccccc2c1=O`, the activity change, positive = activation came to 32.2%. On the same count and under the same terms, for `CCOC(=O)c1c(C=O)c(C)n(Cc2ccccc2Cl)c1C` the value was 24.2%; for `O=C(Nc1nnc(C2=COCCO2)o1)c1ccc(S(=O)(=O)N2CCCC2)cc1`, -32.7%. In the case of `CC(C)c1cc(C(=O)N/N=C/c2ccco2)n[nH]1`, the Potency is active: 15.8 µM.

As for `O=C(CSCc1ccc(Cl)cc1)N1CCN(Cc2ccc3c(c2)OCO3)CC1`, the “activity change, positive = activation” value was inactive: -32.9%. In the case of `CCCCSc1nnc2c(n1)[nH]c1ccccc12`, the Potency is active: 3.55 µM. For `CCc1ccc2[nH]c(=O)c(CN(Cc3ccc(F)cc3)C(c3nnnn3CCN3CCOCC3)C(C)C)cc2c1` (stereo not given), the activity change, positive = activation is 57.5%. Same read-out and setting: for `N#Cc1c(N)nc2c(c1N)CC(COc1ccccc1)O2` (stereo not given) the value was 34.2%. As for `Cc1cccc(NC(=O)c2n[nH]c([N+](=O)[O-])c2Br)c1C`, the Potency was active: 10 µM. Turning to `Cc1ccc(NC(=O)CSc2nc3nc(C)cc(C)c3c(=O)[nH]2)cc1`, the activity change, positive = activation was determined as 50.5%. Still for that read-out and setting: for `Cc1cccc(NS(=O)(=O)c2cc(C(=O)NCCC3=CCCCC3)ccc2Cl)c1` the value was inactive: -34%; for `Cc1cccc(N(CC(=O)NCc2ccco2)C(=O)CCC(=O)Nc2ccccn2)c1`, 38.3%; for `Cc1ccc(C2CC(c3cccc(Br)c3)Nc3nnnn32)cc1` (stereo not given), 32.8%. For `CC(=O)Nc1ccc2oc(C)nc2c1`, the activity change, positive = activation was 33.4%.

With `Cc1ccc2c(COC(=O)c3n[nH]c4ccccc34)cc(=O)oc2c1`, the activity change, positive = activation was 63.5%. With `COc1ccc(/C=N/N2CCN(C3c4ccccc4-c4ccccc43)CC2)cc1OC`, the activity change, positive = activation came to 27.4%. Consider `CCOc1ccccc1C(=O)Nc1nnc(COC)s1`, for which the activity change, positive = activation was determined as 17.3%. As for `COC(=O)c1ccc(NC(=O)NC2CCCCC2)cc1`, the Potency is active: 12.6 µM. Consider `COc1ccc(S(=O)(=O)CCC(=O)N2CCN(c3ccc(F)cc3)CC2)cc1`, for which the activity change, positive = activation was -53.6%. The same measure, in the same setting: to `Cc1nc(Nc2ccc(C(=O)O)cc2)sc1-c1ccccc1` belongs -60.4%; to `COc1ccc(CCNc2ncnc3[nH]ncc23)cc1OC`, -51.3%. `CCOC(=O)CCNC(C(=O)OCC)c1ccccc1` (stereo not given): the activity change, positive = activation stood at 31.7%. As to `N#CCCN(CC(=O)O)S(=O)(=O)c1ccccc1`, the activity change, positive = activation worked out at 53.3%. Same read-out and setting: to `O=S(=O)(Nc1ccccc1Cl)c1ccc(F)cc1` belongs 49.2%. For `Fc1ccc(CSc2nc3ccccc3[nH]2)cc1`, the Potency is active: 11.2 µM.

`CC(C)Cn1c(-c2ccc(Br)o2)n[nH]c1=S`: the “activity change, positive = activation” value is inactive: -7.91%. The same measure, in the same setting: for `O=C(c1ccc(Cl)s1)N1CCN(c2nc3ccccc3s2)CC1` the value was inactive: -34.8%. Still for that read-out and setting: for `COc1cc(OC)c(C2=NOC(C(=O)NCc3ccc4c(c3)OCO4)C2)cc1Cl` (stereo not given) the value was 34.5%; for `CC(=O)Nc1ccc(Nc2ccc(N3C(=O)CCCC3=O)cc2[N+](=O)[O-])cc1`, -2.75%.

Turning to `COC(=O)c1ccc(N2C(=O)CC(SCCN)C2=O)cc1` (stereo not given), the Potency is active: 11.2 µM.

As for `Cc1nc(-c2c(-c3ccc(O)cc3O)noc2C(F)(F)F)cs1`, the activity change, positive = activation came to 38.9%.

For the molecule `CC(C)(C)C(=O)Nc1cc2nn(-c3ccccc3)nc2cc1Cl`, the “activity change, positive = activation” value was inactive: -95.5%. In the case of `CCn1c(Cc2ccccc2)nnc1SCC(=O)Nc1nnc(-c2ccccc2)s1`, the Potency was active: 0.112 µM. On to `Cc1nc2nc(-c3ccccc3)cn2nc1C`, for which the Potency is active: 8.91 µM. In the case of `O=C(Nc1ccc(-c2nnc3n2CCCCC3)cc1)c1cc2ccccc2o1`, the “activity change, positive = activation” value was inactive: -2.06%. On to `Cc1ccc(CC(=O)NCC(C)C)cc1`, for which the activity change, positive = activation turned out to be 27.1%. The same measure, in the same setting: for `COC(=O)c1cc(C(=O)OC)cc(N2C(=O)CN=C2Nc2nc(C)cc(C)n2)c1` the value was 66.1%; for `CN(C)c1ccc(-n2cccc2/C=C/[N+](=O)[O-])cc1`, inactive: -40.9%. On the same count and under the same terms, for `COc1cc2ncc(S(=O)(=O)c3ccccc3)c(N3CCC4(CC3)OCCO4)c2cc1OC` the value was 36.1%; for `CC1CCc2noc(NC(=O)c3ccc([N+](=O)[O-])cc3)c2C1` (stereo not given), 41.1%. As to `CCOc1ccc2oc(-c3ccccc3)c(C(=O)N3CCN(C)CC3)c2c1`, the activity change, positive = activation worked out at 37.4%. Turning to `O=C(CSc1ncccn1)c1ccccc1Br`, the Potency was active: 12.6 µM.

As to `COc1ccc(C(=O)NCc2nnc(SCC(=O)NO)n2Cc2ccccc2)cc1`, the activity change, positive = activation was -23.3%. The same measure, in the same setting: to `O=C(c1cccc(S(=O)(=O)N2CCc3ccccc3C2)c1)N1CCN(c2ccc(O)cc2)CC1` belongs inactive: -37%.

Take `Cc1cc(C)nc(Nc2nc3ccccc3[nH]2)n1`: the Potency was active: 12.6 µM.
